Measurements reported in article PMC8927968, “Lysine Methylation Modulates the Interaction of Archaeal Chromatin Protein Cren7 With DNA”.
The exact form of at least one protein or probe is not confirmed.

The chains behind the UniProt entries cited, without tags or fusion partners.
UniProt C3NHU3, whole entry, stated change not applied: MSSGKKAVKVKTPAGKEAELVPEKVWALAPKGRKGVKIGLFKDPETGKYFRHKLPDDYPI

Target: Cren7ΔaKMT (native, unmethylated) (Sulfolobus islandicus ΔaKMT) (UniProt C3NHU3)
Assay: BLI
Details: BLI: 20 mM Tris-HCl pH 6.8, 100 mM KCl, 1 mM EDTA, 0.05% Tween-20, 30°C; native protein; label: 5' biotin on strand 1

For “TAGAGCCCTAGTCTTCCAAACTAGCTACGC (double strand) [D30]”, the Kd was 165 nM.
